Data taken from PubChem BioAssay AID493014 (National Center for Advancing Translational Sciences (NCATS), 2011).
Values joined by “and” are separate entries in the source; they are usually repeats but may differ in a detail not shown here. Equal values may be shown once. The whole screen tested about 340,000 compounds, of which about 170 (0.05%) were called active. Inconclusive results, whose numbers are uncertain, are shown with a selection of clear calls. The call rests on the fitted dose curve; in most records, active means well fitted inhibition curve with a large enough effect in the signal ratio, with a control signal flat (not every such curve was filed as active); inconclusive means small, poorly fitted or top-dose-only effect, or effect the other way, or a change in a side signal; inactive means flat fitted curve, though single readings scatter; the % refers to the signal ratio. Where the call is inconclusive, the potency comes from a doubtful curve fit.

Assay: qHTS Assay to Find Inhibitors of Chronic Active B-Cell Receptor Signaling;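 on activity change, negative = inhibition: plate controls were basal doxycycline-induced cells for no effect and cells given 10 µM MG132 for full effect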
Conditions: ABC-DLBCL IkBa-CBG/CBR reporter, luminescence ratio (green luciferase fused to IkBa over red control in TMD8 lymphoma cells), 4 h; activity change, negative = inhibition: at 46.1 µM (top of the series) unless noted
Procedure, shortened: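 Cell line TMD8 (human ABC DLBCL), stably expressing tet-inducible CBG68-IkBa fusion and CBR; IMDM/0.5% FBS; cpd up to 46 uM; dox induction, 4 h, 37C/5% CO2; dual luminescence; green/red ratio; MG132 control.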
Potency means the concentration at half of the fitted maximal effect.

| Compound | Potency | activity change, negative = inhibition |
| --- | --- | --- |
| O=C(N/N=C/c1ccc(-c2cccc(C(F)(F)F)c2)o1)c1ccccc1O | inconclusive: 20.6 µM [falling, partial curve] | – |
| CCC(=O)NCCc1nc2cc(NC(=O)c3ccc(Cl)cc3)ccc2n1C | inconclusive: 12.6 µM [falling, partial curve] | – |
| COC(=O)c1ccc(COc2cc(O)c3c(c2)OC(C)(C)CC3=O)cc1 | – | inconclusive: -3.28% |
| COCCNC(=O)[C@@H]1CCCN1S(=O)(=O)c1cccc2cccnc12 | – | inconclusive: -2.08% |
| CCOC(=O)c1cnc2ccc(OCC)cc2c1N1CCN(c2ccccc2OC)CC1 | inconclusive: 20.6 µM [falling, single point] | – |
| N=c1n(CCN2CCCCC2)c2ccccc2n1CC(O)c1cccc(Br)c1 (stereo not given) | inconclusive: 17.8 µM [falling, partial curve, poor fit] | – |
| CCOc1ccc(CC(=O)Nc2ccc(S(=O)(=O)N3CCCC3)cc2)cc1 | – | inactive |
| CC(=O)Nc1cc(C(F)(F)F)ccc1Oc1cccc(Br)c1 | – | inactive |
| CC1=C(C#N)C(/C=N/OCc2ccc(F)cc2Cl)CC(=O)N1 (stereo not given) | – | inconclusive: 9.2% |
| COC(=O)c1ccc(C(=O)N=c2sccn2C)cc1 | inconclusive: 11.2 µM [falling, single point] | – |
| C[C@]12c3[nH]c4cc(-c5ccco5)ccc4c3CCN1C(=O)[C@@H](CC(=O)NCc1ccco1)C[C@@H]2C(=O)N1CCOCC1 | – | inactive |
| C/C(=N\NC(=O)c1cc(Br)ccc1O)c1ccccn1 | – | inconclusive: 293% |
| Clc1ccccc1-c1ccc2ncnc(NCc3ccc4c(c3)OCO4)c2c1 | – | inconclusive: -6.06% and inconclusive: -6.1% |
| Cc1ccc(S(=O)(=O)NN2C(=O)/C(=C/c3ccc(C(=O)O)cc3)SC2=S)cc1 | – | inactive |
| COc1cc(CNCCc2ccccc2F)ccc1OCc1ccc(Cl)nc1 | – | inactive |
| CC1(C)CC(=O)C2=C(C1)Oc1ncn(Cc3ccco3)c(=N)c1C2c1ccccc1 (stereo not given) | – | inconclusive: -1.52% |
| COc1ccc(C2C(C#N)=C(SCC(=O)Nc3ccc(C)cc3)NC3=C2C(=O)CC(C)(C)C3)cc1 (stereo not given) | – | inactive |
| COc1c(C)cccc1C(=O)Nc1ccc(N2CCN(C(=O)c3ccccc3C)CC2)cc1 | inconclusive: 35.5 µM [falling, single point] | – |
| Cc1ccc(OCC(O)Cn2c(=N)n(CCN3CCCCC3)c3ccccc32)cc1 (stereo not given) | inconclusive: 25.9 µM [falling, single point] | – |
| O=S(=O)(Nc1cccc(S(=O)(=O)N2CCCC2)c1)c1cccc(Br)c1 | – | inconclusive: 5.81% |
| CCOc1ccc(Nc2nc(N3CCCC3)nc(N3CCN(c4ccc(OC)cc4)CC3)n2)cc1 | – | inactive |
| O=C(Nc1ccn(Cc2ccccc2)n1)c1cccc(Cn2cc([N+](=O)[O-])cn2)c1 | – | inconclusive: -17.5% |
| COc1cc(/C=C2/S/C(=N/S(=O)(=O)c3ccccc3)NC2=O)c([N+](=O)[O-])cc1OC | – | inconclusive: -5.07% |
| Cc1onc(-c2ccccc2Cl)c1C(=O)Nc1ccccc1 | – | inactive |
| O=C1NNC(c2ccccc2)=N/C1=C\c1ccc(Cl)cc1 | – | inconclusive: 14.9% |

| Compound | Potency | activity change, negative = inhibition |
| --- | --- | --- |
| COc1ccccc1[C@H]1C(c2cccc(C)c2)=NN(c2ccccc2)[C@@H]1CO | – | inactive |
| N#CC1=C(S)N(c2ccccc2)C(c2ccco2)NC1=O (stereo not given) | inconclusive: 22.4 µM [falling, single point] | – |
| Cc1[nH]c(C)c(S(=O)(=O)NCCc2ccccc2)c1C(=O)N1CCCCC1 | – | inactive |
| COc1ccc(/C=C/C(=O)c2ccc(O)cc2)cc1 | inconclusive: 12.6 µM [falling, partial curve] | – |
| COc1ccccc1NC(=O)c1ccc(NC(=O)CSc2ncccn2)cc1 | – | inconclusive: 0.447% |
| NC1=NC2(CCCCC2)N=C(Nc2ccc(Br)cc2)N1 | inconclusive: 29.1 µM [falling, single point] | – |
| Cc1cc(NC(=O)NC(=O)c2cccc(OC(F)(F)C(F)F)c2)n[nH]1 | inconclusive: 2.59 µM [falling, full curve, poor fit] | – |
| CCN1C(=O)/C(=C/c2ccc(C)o2)N(C)C1=S | – | inconclusive: -7.7% |
| COc1ccc(NCc2ccc([N+](=O)[O-])s2)c(OC)c1 | – | inconclusive: -0.869% |
| O=C(NCCc1ccc(F)cc1)c1cc(=O)c2ccccc2o1 | – | inconclusive: -29% |
| Cc1cccc(NC(=O)CSc2nc3ccccc3o2)c1 | – | inconclusive: 0.117% |
| COc1cccc(NC(=O)CN(C)C(=O)c2cc3c(s2)CCCCC3)c1 | – | inactive |
| CC1(C)C(=O)C2(CCCCC2)C(=O)OC1c1cccn1-c1ccc([N+](=O)[O-])cc1 (stereo not given) | – | inactive |
| Cc1ccc(C)c(OCCN2C(=O)NC3(CCc4ccccc4C3)C2=O)c1 (stereo not given) | – | inconclusive: -4.52% |
| CCCC(=O)c1ccc(N2CCCCCC2)c(F)c1 | – | inactive |
| CS(=O)(=O)N(CC(=O)N1CCN(c2cccc(Cl)c2)CC1)C1CCCCC1 | – | inconclusive: 7.27% |
| Nc1ccc(C(=O)NCCCSc2ccccc2)cc1[N+](=O)[O-] | – | inconclusive: -20.9% |
| CCN(CCCNC(=O)Cn1ncc2c([nH]c3ccc(C)cc32)c1=O)Cc1ccccc1 | – | inactive |
| CCOC(=O)N1CCC(NC(=O)c2cc(C(=O)NCc3cccc(Cl)c3)ccc2CO)CC1 | – | inconclusive: 12.8% |
| CCN1CCN(c2ncnc3scc(-c4ccc(OC)cc4)c23)CC1 | inconclusive: 35.5 µM [falling, partial curve, poor fit] | – |
| CC(=O)[C@@]12O[C@@H]1C[C@H]1[C@@H]3CC[C@H]4C[C@@H](O)CC[C@]4(C)[C@H]3CC[C@@]12C | – | inconclusive: 1.67% |
| COc1ccc(C(=O)N2CCSC2=S)cc1OC | inconclusive: 20.6 µM [falling, single point] | – |
| COCCn1c(SCC(=O)Nc2cc(C)on2)nnc1-c1c[nH]c2ccccc12 | – | inconclusive: 10.7% |
| COc1ccc(C=C2C(=O)c3ccccc3C2=O)cc1O | – | inconclusive: -8.41% |
| COc1ccccc1C(=O)NNC(=O)C1CC=CCC1 (stereo not given) | inconclusive: 31.6 µM [rising, single point] | – |

An excerpt of these results, field by field:
O=C(NCCc1ccc(F)cc1)c1cc(=O)c2ccccc2o1
  activity change, negative = inhibition: inconclusive: -29%
Cc1cccc(NC(=O)CSc2nc3ccccc3o2)c1
  activity change, negative = inhibition: inconclusive: 0.117%
COc1cccc(NC(=O)CN(C)C(=O)c2cc3c(s2)CCCCC3)c1
  activity change, negative = inhibition: inactive
CC1(C)C(=O)C2(CCCCC2)C(=O)OC1c1cccn1-c1ccc([N+](=O)[O-])cc1 (stereo not given)
  activity change, negative = inhibition: inactive
